In PMC4526116 one finds binding data, which are given here for one substance.

No constants are given. Whether binding was seen depends on the method and setting. In cells and extracts the contact can be indirect. Some entries that bind do so weakly or less than the wild type.

In this assay the target is endogenous UVRAG (wild type) of 293T cells (human (endogenous in 293T)) (UniProt Q9P2Y5). Nature of the assay: co-IP; 293T transfected with increasing amounts of Flag-UVRAG^FS and treated with IR (5 Gy); whole-cell lysates immunoprecipitated with anti-DNA-PKcs or anti-UVRAG, immunoblotted with the indicated antibodies.

On to “Ku70/Ku80 (from UniProt P12956 1-609; P13010 1-732) (complex)”, for which the binding result is “binds”.
